Measurements as given in article PMC3667844.
Results are given in words; binding and its absence hold for the method and conditions named.

How the values were obtained:
pAS Rab3A wtΔC [1] = experiment: two-hybrid; Y190 co-transformed with prey (pP6 or pACT) and bait (pAS) plasmids; β-galactosidase reporter activity on replica filters with X-gal (β-gal)
pAS H-Ras wt ΔC [2] = experiment: as above
pAS Rab3A wtΔC [3] = experiment: two-hybrid; Y190 co-transformed with prey (pP6 or pACT) and bait (pAS) plasmids; growth on synthetic medium lacking leucine, tryptophan and histidine with 30 mM 3 AT (his3)
pAS H-Ras wt ΔC [4] = experiment: as above

Measured: binding

B1: pP6 Mint1 (aa 438–769), yeast two-hybrid clone that lacks aa 495–505 (domain or fragment, UniProt Q02410-1)
chain: ASFPTYVEVPGPCDPEDLIDGIIFAANYLGSTQLLSDKTPSKNVRMMQAQEAVSRIKAPEGESQPMTEVDLFISTQRIKVLNADTQETMMDHPLRTISYIADIGNIVVLMARRRMPRSNSQENVEASHPSQDGKRQYKMICHVFESEDAQLIAQSIGQAFSVAYQEFLRANGINPEDLSQKEYSDLLNTQDMYNDDLIHFSKSENCKDVFIEKQKGEILGVVIVESGWGSILPTVIIANMMHGGPAEKSGKLNIGDQIMSINGTSLVGLPLSTCQSIIKGLKNQSRVKLNIVRCPPVTTVLIRRPDLRYQLGFSVQNGIIC
no binding: all assays above
